Patent US20090181003A1, “Regulation of S6 Kinsase Protein Activity and Related Methods” (priority 2005, published 2009)
These are yes or no findings as the source states them, for the method shown. Some results given as binding are weak or reduced against the parent protein; the word gives no strength.

The chains behind the UniProt entries cited, without tags or fusion partners. Where a name states a change or a piece, a line headed by the entry shows the natural chain unless it says otherwise.
UniProt P23443: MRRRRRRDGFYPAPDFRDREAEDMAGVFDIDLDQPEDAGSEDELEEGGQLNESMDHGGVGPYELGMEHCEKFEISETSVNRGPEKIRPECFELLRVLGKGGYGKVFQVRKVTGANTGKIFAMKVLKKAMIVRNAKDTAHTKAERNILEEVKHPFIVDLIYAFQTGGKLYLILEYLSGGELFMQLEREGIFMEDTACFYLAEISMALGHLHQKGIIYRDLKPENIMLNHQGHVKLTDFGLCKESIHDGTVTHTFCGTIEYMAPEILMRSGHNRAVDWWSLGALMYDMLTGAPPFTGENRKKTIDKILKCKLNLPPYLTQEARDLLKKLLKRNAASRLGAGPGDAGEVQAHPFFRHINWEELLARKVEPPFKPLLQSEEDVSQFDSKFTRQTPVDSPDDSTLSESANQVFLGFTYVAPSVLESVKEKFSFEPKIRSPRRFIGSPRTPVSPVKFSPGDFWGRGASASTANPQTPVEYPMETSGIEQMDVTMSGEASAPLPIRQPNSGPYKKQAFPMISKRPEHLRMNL

Molecular target: p300/Gal4 DNA binding domain (DBD) fusion (UniProt P04386)
Assay: anti-EE immunoprecipitation from cotransfected HEK 293 cells, anti-Gal4 DBD western blot

EE-tagged S6K1 (from UniProt P23443 1-525) (enzyme)
binding: binds
